Screen size: about 320,000 compounds; about 22,000 (6.9%) were called active. The inconclusive results got no clear call from the source; some entries with a clear call stand among them for comparison. The call rests on the fitted dose curve; in most records, active means well fitted inhibition curve with a large enough effect; inconclusive means small, poorly fitted or top-dose-only effect, or another doubt; inactive means no such curve, though single readings can be large or run the other way. A potency beside an inconclusive call is a rough fit, not a confirmed value.
experiment: Primary qHTS for delayed death inhibitors of the malarial parasite plastid, 96 hour incubation; conditions: P. falciparum luciferase reporter growth; series mostly up to 28.7 µM
Procedure, shortened: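 Parasite growth measured via integrated firefly luciferase reporter in P. falciparum. Infected erythrocytes at 2% hematocrit, 0.05% parasitemia final were treated 96 hours at 37 C under 5% CO2, and luminescence was read.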
Potency means the concentration at half of the fitted maximal effect.

| SMILES | Potency |
| --- | --- |
| CC1=C(C(=O)Nc2ccc(C)cc2C)C(c2ccc([N+](=O)[O-])cc2)n2ncnc2N1 (configuration not stated) | inconclusive: 2.62 µM [inhibitor, full curve, poor fit] |
| C=C(NC(=O)C(=C)NC(=O)c1csc(C2=NC3c4csc(n4)C4NC(=O)c5csc(n5)C([C@@](C)(O)C(C)O)NC(=O)C5CSC(=N5)/C(=C\C)NC(=O)C(C(C)O)NC(=O)c5csc(n5)[C@]3(CC2)NC(=O)C(C)NC(=O)C(=C)NC(=O)C(C)NC(=O)C(C(C)CC)NC2C=Cc3c(C(C)O)cc(nc3C2O)C(=O)OC4C)n1)C(N)=O (some centres not stated) | active: 0.738 µM |
| CC(C)n1c2ccccc2c2cc([N+](=O)[O-])ccc21 | active: 4.65 µM |
| Cc1ccc(S(=O)(=O)N2CCOCC2)cc1C(=O)Nc1cc(Cl)ccc1N1CCOCC1 | inconclusive: 11.7 µM [inhibitor, single point] |
| O=c1[nH]c2ccc(NCc3ccccc3OCc3ccc(Cl)cc3)cc2[nH]1 | inconclusive: 13.1 µM [inhibitor, partial curve] |
| COc1cccc(-n2nnc3c(=O)n(CC(=O)Nc4ccc(C)cc4)cnc32)c1 | inactive |
| COc1ccc(OC)c(/C=N\NC(=O)c2c(C)nc3cc(C)ccn23)c1 | inconclusive: 18.5 µM [inhibitor, single point] |
| O=C(O)c1cccc(S(=O)(=O)Nc2ccccc2C(=O)NCCc2ccccc2)c1 | inactive |
| CCn1c(SCC(=O)OC2CCCCC2)nc2ccccc2c1=O | inactive |
| COC(=O)C(C)NC(=O)C12CC3CC(C1)CC(c1ccc(C)cc1)(C3)C2 (configuration not stated) | inconclusive: 2.94 µM [inhibitor, partial curve, poor fit] |
| CCCC(=O)C1=C(O)C(C(=O)OC)C(C)(C)CC1=Nc1cccc2ccccc12 (configuration not stated) | inactive |
| O=C(NNc1ccc(Cl)cc1)c1cccs1 | inconclusive: 0.522 µM [inhibitor, full curve, poor fit] |
| O=C(CSCc1ccc(F)cc1)NC1CCCC1 | inconclusive: 8.28 µM [inhibitor, single point] |
| O=C(CCc1nnc(-c2ccc3c(c2)OCO3)o1)NC(c1cccnc1)C(F)(F)F (configuration not stated) | inconclusive: 10.4 µM [inhibitor, single point] |
| C=C(C)Cc1c(C)c(C#N)c2nc3ccccc3n2c1NCCCN(C)C | active: 9.28 µM |
| COc1ccc(N2C(=S)NC(C)(C)CC2(C)c2ccc(OC(C)=O)cc2OC(C)=O)cc1 (configuration not stated) | inconclusive: 11.7 µM [inhibitor, single point] |
| CC1=NNC(=O)C1CC(=O)N/N=C(/C)c1cccc([N+](=O)[O-])c1 (configuration not stated) | inconclusive: 4.65 µM [inhibitor, partial curve, poor fit] |

2 records picked at random from the list so far, as already listed:

| SMILES | Potency |
| --- | --- |
| C=C(NC(=O)C(=C)NC(=O)c1csc(C2=NC3c4csc(n4)C4NC(=O)c5csc(n5)C([C@@](C)(O)C(C)O)NC(=O)C5CSC(=N5)/C(=C\C)NC(=O)C(C(C)O)NC(=O)c5csc(n5)[C@]3(CC2)NC(=O)C(C)NC(=O)C(=C)NC(=O)C(C)NC(=O)C(C(C)CC)NC2C=Cc3c(C(C)O)cc(nc3C2O)C(=O)OC4C)n1)C(N)=O (some centres not stated) | active: 0.738 µM |
| O=C(CSCc1ccc(F)cc1)NC1CCCC1 | inconclusive: 8.28 µM [inhibitor, single point] |
